Experimental findings from PMC12501288 are described below.

Chains of the proteins cited; added tags and fusions are not shown. Lines headed by an entry give the natural chain unless they say otherwise; changes in a name come on top.
UniProt P01106: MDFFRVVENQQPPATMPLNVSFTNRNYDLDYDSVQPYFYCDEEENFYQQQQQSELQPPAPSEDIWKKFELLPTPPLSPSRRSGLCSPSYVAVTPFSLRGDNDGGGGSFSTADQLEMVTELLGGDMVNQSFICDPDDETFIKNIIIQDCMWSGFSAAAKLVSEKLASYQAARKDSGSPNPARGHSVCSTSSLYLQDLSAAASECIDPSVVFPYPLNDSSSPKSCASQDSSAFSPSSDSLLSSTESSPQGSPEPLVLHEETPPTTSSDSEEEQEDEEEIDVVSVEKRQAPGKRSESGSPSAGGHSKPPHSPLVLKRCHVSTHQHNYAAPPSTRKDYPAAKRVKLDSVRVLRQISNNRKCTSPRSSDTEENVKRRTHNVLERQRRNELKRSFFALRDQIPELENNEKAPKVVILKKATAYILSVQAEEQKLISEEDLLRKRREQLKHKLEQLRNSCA
UniProt Q13950: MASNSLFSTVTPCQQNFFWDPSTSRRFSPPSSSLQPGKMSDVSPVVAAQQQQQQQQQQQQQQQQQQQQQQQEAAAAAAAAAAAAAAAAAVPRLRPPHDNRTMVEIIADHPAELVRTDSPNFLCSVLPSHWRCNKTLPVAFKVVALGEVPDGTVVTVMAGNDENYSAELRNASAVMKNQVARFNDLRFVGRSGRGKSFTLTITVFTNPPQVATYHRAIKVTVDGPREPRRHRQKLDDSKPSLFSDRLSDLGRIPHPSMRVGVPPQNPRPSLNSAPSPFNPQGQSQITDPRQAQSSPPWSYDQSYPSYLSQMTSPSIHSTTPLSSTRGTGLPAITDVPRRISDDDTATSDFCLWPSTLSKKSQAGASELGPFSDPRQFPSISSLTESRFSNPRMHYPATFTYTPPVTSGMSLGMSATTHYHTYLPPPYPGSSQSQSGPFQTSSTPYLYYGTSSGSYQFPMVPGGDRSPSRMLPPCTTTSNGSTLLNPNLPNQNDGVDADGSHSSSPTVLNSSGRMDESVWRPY

Results are given in words; binding and its absence hold for the method and conditions named. Binding seen in cells or lysates may run through a third protein. For some of these results: A result given as binding can be weak or reduced; the word gives no strength.

What all share (test): co-IP; 293T cells co-transfected with Flag-tagged RUNX2 (full length or deletion mutants) and HA-tagged c-Myc (full length or deletion mutants); lysed in IP buffer, antibody overnight at 4 °C, protein A/G beads, immunoblot
Assay [1] deals with HA-tagged c-Myc mutant lacking the MB1 domain (not stated (human or mouse cDNA cloned)) (UniProt P01106).
Assay [2] has as its target HA-tagged c-Myc mutant lacking the MB2 domain (not stated (human or mouse cDNA cloned)) (UniProt P01106).
Assay [3] has as its target HA-tagged c-Myc mutant lacking the MB3 domain (not stated (human or mouse cDNA cloned)) (UniProt P01106).
Assay [4] has as its target HA-tagged full-length c-Myc (not stated (human or mouse cDNA cloned)) (UniProt P01106).

As for “Flag-tagged full-length RUNX2 (Runt-related transcription factor 2) (from UniProt Q13950 1-521)”, the binding entry in assay [1] is listed as “no binding”; in assay [2], “binds”; in assay [3], “binds”.
For the substance “Flag-tagged RUNX2 mutant lacking the Runt-homology domain (from UniProt Q13950)”, in assay [4], the binding entry was “no binding”.
